From PubChem BioAssay AID1347075 (National Center for Advancing Translational Sciences (NCATS), 2019)
About 5,500 (1.4%) of roughly 400,000 compounds were called active. The shares of active, inactive and inconclusive entries below differ from those in the screen. Calls come from the whole dose curve; as a rule, active = well fitted cell-killing curve with a large enough effect; inconclusive = small, poorly fitted or top-dose-only effect, or effect the other way; inactive = flat fitted curve, though single readings scatter. Potencies beside an inconclusive call are fits to weak or partial responses and may not hold up.

Test: qHTS assay for MDR1-selective chemotherapeutics: Primary screen using the parental adenocarcinoma cell KB-3-1; note: nearly all actives have a fitted effect of over 60% in size
Settings: KB-3-1 viability, CellTiter-Glo ATP luminescence, 72 h; activity change, negative = cytotoxic: at 46.1 µM (top of the series)
Procedure, shortened: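 Multi-concentration cytotoxicity screen in KB-3-1 cells grown in DMEM lacking phenol red with 10% FBS. After 72 h at 37 °C with compound, ATP-dependent luminescence was recorded.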
% is set by controls: 0 for no effect and ±100 for the full control effect; potency is the fitted concentration of half-maximal effect.

Compound	Potency	activity change, negative = cytotoxic
COc1cc(O)c(C(CC(=O)N2CCOCC2)c2ccc3c(c2)OCO3)c(OC)c1 (stereo not given)	inconclusive: 35.5 µM [rising, partial curve, poor fit]	
COc1ccc(C2=Nn3c(nnc3-c3ccccn3)SC2)cc1	inconclusive: 29.1 µM [cytotoxic, single point]	
CN(Cc1ccccc1)C(=O)Cc1ccccc1		inconclusive: -0.23%
COCCn1nnnc1C(c1cc2cc(OC)ccc2[nH]c1=O)N1CCC(Cc2ccccc2)CC1 (stereo not given)	inconclusive: 20.6 µM [cytotoxic, single point]	
COc1cccc(NC(=S)Nc2ccc(Br)cc2Cl)c1		inactive: -4.87%
CC(C)COCc1ccc(O)c2ncccc12	inconclusive: 20.6 µM [cytotoxic, single point]	
O=C(NCCC1=CCCCC1)c1ccc(=O)oc1		inactive: -8.38%
CCCn1c(NC(=O)c2ccc(C)cc2)nc2ccccc21	inconclusive: 23.1 µM [cytotoxic, partial curve, poor fit]	
CCN(CC)S(=O)(=O)c1cc(NC(=O)C(C)N2CCN(Cc3ccc4c(c3)OCO4)CC2)ccc1C (stereo not given)	active: 13 µM	
CCC(C)Nc1nc(CN2CCOCC2)nc2sc3c(c12)CCC3 (stereo not given)	inconclusive: 20.6 µM [cytotoxic, single point]	
COc1ccc(/C=C2\CC/C(=C\c3ccc(OC)cc3OC)C2=O)c(OC)c1	inconclusive: 29.1 µM [cytotoxic, partial curve, poor fit]	
COc1ccc(CCNC(=O)c2ccc(N(C)S(=O)(=O)c3ccc(C)cc3)cc2)cc1	inconclusive: 23.1 µM [cytotoxic, single point]	
O=C(OCc1c(F)cccc1Cl)c1cnc(Cl)c(Cl)c1	inconclusive: 7.31 µM [rising, partial curve]	
CCn1cc(S(=O)(=O)c2ccc(Cl)cc2)c(=O)c2cc(F)c(N3CCOCC3)cc21		inactive: 3.29%
COCCNC(=O)c1cc(-c2ccccc2)nn1CC1CC(c2cccnc2)=NO1 (stereo not given)		inactive: 16.9%
Cc1cccc(C(=O)OCC(=O)c2c(N)n(CC(C)C)c(=O)n(C)c2=O)c1O	inconclusive: 16.4 µM [cytotoxic, partial curve]	
Cc1ccc2onc(CNC(=O)N3CCN(c4cccc(C(F)(F)F)c4)CC3)c2c1		inactive: 2.87%
CCCCCCCCCCCCCC[N+](C)(C)Cc1ccccc1	active: 18.4 µM	
CCOc1ccc(OCC)c(NC(=O)C2CCN(S(=O)(=O)c3cccc4nonc34)CC2)c1	inconclusive: 29.1 µM [cytotoxic, single point]	
COC(=O)c1ccc2nc(C)cc(Nc3cccc(Cl)c3C)c2c1		inactive: -6.47%
COc1cc(OC)cc(C(=O)NNC(=S)NC(=O)c2cccnc2)c1		inactive: 0.478%
Cc1ccc2oc(-c3ccc(C)c(NC(=O)c4ccc(-c5ccccc5[N+](=O)[O-])o4)c3)nc2c1		inactive: 17.5%
Cc1ccc(C(=O)NCC(=O)Nc2ccc(Cl)cc2)s1		inactive: 15.5%

Of the compounds above, these have a thiophene ring, fused or not.
Compound	Potency	activity change, negative = cytotoxic
CCC(C)Nc1nc(CN2CCOCC2)nc2sc3c(c12)CCC3 (stereo not given)	inconclusive: 20.6 µM [cytotoxic, single point]	
Cc1ccc(C(=O)NCC(=O)Nc2ccc(Cl)cc2)s1		inactive: 15.5%

Going on with the list.

Compound	Potency	activity change, negative = cytotoxic
Cc1ccnc(NC(=O)c2cccc(OC(F)F)c2)n1		inactive: 5.45%
CCn1c(/C=C/c2ccccc2F)nc2ccccc2c1=O	inconclusive: 20.6 µM [cytotoxic, partial curve, poor fit]	
CSc1ccc(/C=C/C(=O)c2ccc(NC(=O)C(C)C)cc2)cc1	inconclusive: 18.4 µM [cytotoxic, single point]	
CCN(CC)C1Oc2cc3c(cc2C(c2cccc(OC)c2O)C1C)OCO3 (stereo not given)	inconclusive: 9.2 µM [cytotoxic, partial curve, poor fit]	
O=C(Nc1ccc2c(c1)CCC2)c1c(F)cccc1Cl		inactive: 5.25%
CC(=O)Nc1cc(-c2ccc(CO)cc2)cn2c(-c3ccc(F)c(Cl)c3)cnc12		inactive: 25.3%
Cc1ccc2nc3c(c(Nc4cccc(O)c4)c2c1)CCC3	inconclusive: 18.4 µM [cytotoxic, single point]	
COc1ccccc1NS(=O)(=O)c1cc(NC(=O)c2[nH]c(C)c(C(C)=O)c2C)ccc1N1CCOCC1	inconclusive: 18.4 µM [cytotoxic, single point]	
COc1ccc(Nc2nc(NN)nc(Nc3ccc(OC)cc3)n2)cc1		inactive: -0.411%
CCN(C(=O)CCc1nc(-c2ccc(OC)cc2)no1)c1cc(OC)ccc1OC	inconclusive: 29.1 µM [cytotoxic, single point]	
COC(=O)c1cc2sccc2n1CC(=O)Nc1cc(Cl)ccc1OC	inconclusive: 16.4 µM [cytotoxic, single point]	
Cc1ccc(NC(=O)Cn2c(=O)n(CCCCC(=O)NCc3ccc4c(c3)OCO4)c(=O)c3ccccc32)cc1		inactive: -6.25%
COc1ccc(CN2CCN(Cc3ccc4cc(F)ccc4n3)CC2CCO)c(C)c1C (stereo not given)	inconclusive: 16.4 µM [cytotoxic, partial curve, poor fit]	
COc1cc(-c2cc(NC(C)=O)c3ncc(-c4ccc(C(C)=O)cc4)n3c2)cc(OC)c1OC	inconclusive: 29.1 µM [cytotoxic, single point]	
CCCCC1CCC(C(=O)Nc2ccc(N3CCOCC3)cc2N2CCOCC2)CC1 (stereo not given)		inactive: 27.8%
CN(C)c1cc[n+](CC(=O)N2c3ccccc3Sc3ccccc32)cc1	inconclusive: 5.8 µM [cytotoxic, full curve, poor fit]	
CN(CC(=O)NCCc1ccc(S(N)(=O)=O)cc1)Cc1ccc(Cl)cc1Cl	inconclusive: 8.2 µM [cytotoxic, partial curve, poor fit]	
CCOC(=O)c1c(C)[nH]c(C)c1S(=O)(=O)NCC(=O)NCc1ccccc1C		inactive: -2.19%
CCOc1ccccc1Oc1nc(C)nc2c1oc1ccccc12	inconclusive: 23.1 µM [cytotoxic, single point]	
CC1CC(C)CN(C(=O)c2ccc(CSc3nc4ccncc4[nH]3)cc2)C1 (stereo not given)	inconclusive: 29.1 µM [cytotoxic, single point]	
OCCNCc1cc(Br)ccc1OCc1ccc(Cl)cc1Cl	inconclusive: 29.1 µM [cytotoxic, single point]	
O=C(NCCCCCCCN1CCCCCCC1)C(C1CCCCC1)C1CCCCC1	inconclusive: 20.6 µM [cytotoxic, single point]	
